Results are given in words; binding and its absence hold for the method and conditions named. Some entries that bind do so weakly or less than the wild type.
Experiments:
[1] = molecular target: recombinant human IFNγ protein (R&D systems, 285-IF-100) (human) (UniProt P01579); test: ELISA, plate coated with recombinant human IFN-γ (2 µg/mL), OD405
[2] = molecular target: recombinant human IFNγ protein (R&D systems, 285-IF-100) (human) (UniProt P01579); test: ELISA, biotinylated human IFNγ on streptavidin plate, serial dilutions of antibody (FIG. 3A)
[3] = molecular target: Cynomolgus IFNγ (R&D systems 961-RM-025) (rhesus macaque/cynomolgus); test: ELISA, biotinylated cynomolgus IFNγ on streptavidin plate, serial dilutions of antibody (FIG. 3B)
[4] = molecular target: recombinant human IFNγ protein (R&D systems, 285-IF-100) (human) (UniProt P01579); test: ELISA: biotinylated human IFNγ on streptavidin-coated plate, serial dilutions of antibody, HRP anti-human IgG, TMB, OD 450-650 nm
[5] = molecular target: Cynomolgus IFNγ (R&D systems 961-RM-025) (rhesus macaque/cynomolgus); test: ELISA: biotinylated rhesus macaque/cynomolgus IFNγ on streptavidin-coated plate, serial dilutions of antibody, HRP anti-human IgG, TMB, OD 450-650 nm

Chains of the proteins cited; added tags and fusions are not shown. Lines headed by an entry give the natural chain unless they say otherwise; changes in a name come on top.
UniProt P01579: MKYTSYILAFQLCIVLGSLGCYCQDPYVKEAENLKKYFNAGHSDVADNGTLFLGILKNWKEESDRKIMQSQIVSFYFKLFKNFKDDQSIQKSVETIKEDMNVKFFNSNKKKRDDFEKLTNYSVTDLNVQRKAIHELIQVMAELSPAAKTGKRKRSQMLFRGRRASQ

Measured: binding

B1: AB (antibody, V domains shown)
VH: EVQLVESGGGLVKPGDSLTVSCVASGFTFSNYFIHWVRQAPGKGLEWVATISGRTKYMFYSDSLRGRFTVSRDNANNSVYLHMSSLRGEDTALYYCVRGYDHSDSNSAADLLHWGRGTLVTVSS
VL: NFMLTQPHSVSESPGKTITISCTRGRGYIASYYVQWYQQRPGGVPKIVVFEDTQRPSGVPDRISGSIDTSTNSASLTISGLQTEDEADYYCQSYDDANHVIFGGGTKLTVLG
binds: all assays above

B2: 2B6 (antibody, human IgG1, lambda, V domains shown)
VH: EVQLVESGGGLVKPGGSLRLSCAASGFPFSRYSMHWVRQAPGKGLEWVSSMTSRTNHKYYADSLKGRFLISRDNDRDSLYLEMNSLGVEDTAIYFCARGYDTSGSDSGVDFQYWGQGTLVTVSS
VL: B1 VL
notes: Human IgG1 lambda; also called 2B6 anti-IFNγ mAb
binds: [1] | [2] | [4]

B3: 2A6 (antibody, human IgG1, lambda, V domains shown)
VH: B1 VH
VL: NFMLTQPLSVSGYPGKTIVISCVRSSGSVASHYVQWFQQRPGSAPAMVIYEDSHRPSGIPDRFSGSVDASSNSASLTISGLKTEDEADYFCQSYYGNNQVLFGGGTKLTVLG
modifications: partial N-linked glycosylation at position 76 of the VH region
notes: Human IgG1 lambda, cloned from a single patient B cell and expressed in FreeStyle 293-F cells; also called 2A6 anti-IFNγ mAb
binds: [1] | [2] | [4]

Source: patent US20200289603A1 (ELIXIRON IMMUNOTHERAPEUTICS HONG KONG, published 2020)
